Series [1] can be described thus: general procedure: hybrid (solid and solution phase) peptide synthesis; Fmoc-Sar-Sasrin resin (substitution 0.7 mmol/g); IBCF/NMM mixed anhydride (solution); DIC/HOBt (solid phase); DPPA for cyclisatio. The following applies: TFA salt; for final HPLC purity: 216/280 nm.
A further series can be described thus: peptide synthesis. The following applies: coupling step, TFA salt.

For Tyr(NMe)-c[-DOrn-2-Nal-D-Pro-Gly-], in series [1] (late stage modification step, HPLC system I), the “final HPLC purity” value was determined as 97% purity. In series [1] (late stage modification step), the step yield stood at 90%.

Regarding “Boc-Tyr(NMe,Bzl)D-Orn(Z)-2-Nal-D-Pro-Gly-ONb”, the step yield in the series “peptide synthesis” was 85%.

On to Boc-Tyr(NMe)-c[-D-Orn-2-Nal-D-Pro-Gly-], for which the “final HPLC purity” value is on record as 95% purity in series [1] (cyclisation step, HPLC system II) and 96% purity in series [1] (cyclisation step, HPLC system IIa). Also, the cyclisation yield in series [1] (cyclisation step) is given as 78%.

As for H-Tyr-c[-D-Orn-2-Nal-D-Pro-Sar-], the “final HPLC purity” value in series [1] (whole synthesis, HPLC system I, scale of the general procedure 0.3 g resin) was determined as 97% purity.

For Boc-D-Orn(Z)-2-Nal-D-Pro-Gly-ONb, the step yield in the series “peptide synthesis” was found to be 80%.

On to Boc-Tyr(NMe)-D-Orn-2-Nal-D-Pro-Gly-OH, for which, in series [1] (late stage modification step), the step yield turned out to be 74%.
